Laboratory results published in article PMC9586991.
Results are given in words; binding and its absence hold for the method and conditions named. In cells and extracts the contact can be indirect. Some results given as binding are weak or reduced against the parent protein; the word gives no strength. Tags and fused reporters may be left off the sequences shown.

By UniProt entry, the sequences of proteins in these tests, tags left out.
UniProt O08788: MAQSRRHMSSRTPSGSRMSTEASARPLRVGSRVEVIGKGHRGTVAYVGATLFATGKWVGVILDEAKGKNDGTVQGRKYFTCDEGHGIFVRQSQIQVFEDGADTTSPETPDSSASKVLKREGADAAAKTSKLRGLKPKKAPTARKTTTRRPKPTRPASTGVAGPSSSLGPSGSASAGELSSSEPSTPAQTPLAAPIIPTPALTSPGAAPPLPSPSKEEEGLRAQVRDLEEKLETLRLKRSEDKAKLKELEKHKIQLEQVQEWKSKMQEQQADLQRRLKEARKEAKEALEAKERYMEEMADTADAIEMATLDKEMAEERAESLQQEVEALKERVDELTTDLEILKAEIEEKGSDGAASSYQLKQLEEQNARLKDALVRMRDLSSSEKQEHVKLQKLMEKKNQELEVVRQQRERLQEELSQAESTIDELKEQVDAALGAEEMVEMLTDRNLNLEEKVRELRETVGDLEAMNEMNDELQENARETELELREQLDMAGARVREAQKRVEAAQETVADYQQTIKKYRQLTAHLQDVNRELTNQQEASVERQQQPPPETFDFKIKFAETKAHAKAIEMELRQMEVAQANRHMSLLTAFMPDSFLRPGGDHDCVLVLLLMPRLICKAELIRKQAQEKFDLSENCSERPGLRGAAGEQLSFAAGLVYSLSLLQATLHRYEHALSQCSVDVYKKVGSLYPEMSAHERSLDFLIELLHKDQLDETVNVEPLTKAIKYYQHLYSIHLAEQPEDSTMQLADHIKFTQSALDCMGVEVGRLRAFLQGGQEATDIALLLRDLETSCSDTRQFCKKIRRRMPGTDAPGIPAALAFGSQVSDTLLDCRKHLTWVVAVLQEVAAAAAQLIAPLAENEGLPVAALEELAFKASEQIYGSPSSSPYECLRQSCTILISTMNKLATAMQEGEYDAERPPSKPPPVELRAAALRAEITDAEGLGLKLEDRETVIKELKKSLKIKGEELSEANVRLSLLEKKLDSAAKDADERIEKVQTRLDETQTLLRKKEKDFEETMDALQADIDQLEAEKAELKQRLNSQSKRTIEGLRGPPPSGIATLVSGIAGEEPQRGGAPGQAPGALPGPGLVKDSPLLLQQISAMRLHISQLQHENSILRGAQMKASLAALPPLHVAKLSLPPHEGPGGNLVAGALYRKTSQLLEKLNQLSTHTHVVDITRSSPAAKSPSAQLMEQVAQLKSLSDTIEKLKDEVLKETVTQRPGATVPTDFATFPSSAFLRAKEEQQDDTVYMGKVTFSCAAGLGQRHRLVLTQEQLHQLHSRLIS

Legend:
[1] = molecular target: T1, FLAG-Rab44 expressed in B16-F1 melanoma cells (mouse) (UniProt Q8CB87); experiment: co-IP; B16-F1 cells transfected for 2 days with pEF-FLAG-Rab44; lysates with anti-FLAG agarose beads 16 h at 4 °C; immunoblot for the endogenous proteins
T1 sequence: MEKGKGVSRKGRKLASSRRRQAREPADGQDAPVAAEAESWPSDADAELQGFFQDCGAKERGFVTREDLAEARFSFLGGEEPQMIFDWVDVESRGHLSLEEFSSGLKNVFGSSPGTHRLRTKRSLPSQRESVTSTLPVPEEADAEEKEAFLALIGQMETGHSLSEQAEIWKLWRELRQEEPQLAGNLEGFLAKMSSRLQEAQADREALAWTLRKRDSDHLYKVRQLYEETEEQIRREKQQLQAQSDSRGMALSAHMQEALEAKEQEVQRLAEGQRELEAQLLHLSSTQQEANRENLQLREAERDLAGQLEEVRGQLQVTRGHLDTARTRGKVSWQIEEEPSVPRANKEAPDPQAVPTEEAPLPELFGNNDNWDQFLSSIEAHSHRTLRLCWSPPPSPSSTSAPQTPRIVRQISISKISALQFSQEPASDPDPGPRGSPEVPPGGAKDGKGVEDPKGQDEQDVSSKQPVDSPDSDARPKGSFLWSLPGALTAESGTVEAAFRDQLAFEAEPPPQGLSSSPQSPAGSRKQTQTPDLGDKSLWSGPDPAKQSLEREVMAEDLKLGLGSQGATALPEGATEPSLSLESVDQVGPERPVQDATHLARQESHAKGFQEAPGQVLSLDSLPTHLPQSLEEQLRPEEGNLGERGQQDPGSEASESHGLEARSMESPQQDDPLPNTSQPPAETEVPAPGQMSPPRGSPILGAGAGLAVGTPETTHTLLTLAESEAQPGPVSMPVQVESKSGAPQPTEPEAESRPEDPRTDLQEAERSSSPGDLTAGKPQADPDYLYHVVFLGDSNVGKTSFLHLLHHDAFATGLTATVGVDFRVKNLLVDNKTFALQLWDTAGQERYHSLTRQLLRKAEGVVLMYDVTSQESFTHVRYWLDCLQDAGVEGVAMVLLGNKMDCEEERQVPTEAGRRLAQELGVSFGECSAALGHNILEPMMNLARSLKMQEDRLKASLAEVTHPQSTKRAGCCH

[2] = molecular target: T2, FLAG-tagged Rab44 (mouse) (UniProt Q8CB87); experiment: co-IP; COS-7 cells cotransfected for 2 days with pEF-FLAG-Rab44 (or truncated mutants, or control GST) and pEF-HA-p150Glued; lysates (50 mM Hepes-KOH pH 7.2, 150 mM NaCl, 1 mM MgCl2, 5% glycerol, 0.5% NP-40) with anti-FLAG agarose beads 16 h at 4 °C; immunoblot
T2 sequence: T1 sequence

[3] = molecular target: T2, FLAG-tagged Rab44 (mouse); experiment: co-IP; COS-7 cell lysates with FLAG-Rab44 or FLAG-Rab44ΔN and HA-p150Glued, 2 mM EGTA or 10 μM free Ca2+ added to the lysates; anti-FLAG agarose beads 16 h at 4 °C; immunoblot

| Substance | binding [1] | binding [2] | binding [3] |
| --- | --- | --- | --- |
| endogenous p150^Glued (from UniProt O08788 1-1281) | binds | – | – |
| hemagglutinin (HA)-tagged p150^Glued (from UniProt O08788 1-1281) | – | binds | binds |
